Test results from PubChem BioAssay AID248 (DTP/NCI, 2004).
The list does not hold the whole screen: it is rich in T/C values a quarter to a half above the control, in often repeated tests (any T/C) and in doses without a T/C. Further doses and runs are listed elsewhere. T/C: endpoint of the treated group in % of that of the vehicle group. Some entries give survivors of the animals treated and no T/C: the source files T/C as zero there, which appears to mark a toxic dose or a test without result, not a measured value. Some survivor counts are full or nearly so, which does not show that the dose was tolerated: survival well below the control is almost never listed, so the zero probably covers shortened survival too. Survivors were counted at the toxicity check, usually on the fifth day, unless a day is given; later deaths do not show. Schedule codes are those of the source, taken here to give the interval after Q, in days (D) or hours (H), and the number of doses after X. Where survival is the endpoint, the PubChem record calls one and a half times the control and up active, and a quarter to a half above the control has no call in these data; cut-offs in other NCI protocols can differ. Some schedule codes hold Z or #, which are not explained here.

System: L1210 leukemia ip in BDF1 mice, survival T/C
Assay: NCI In Vivo Anticancer Drug Screen. Data for tumor model L1210 Leukemia (intraperitoneal) in B6D2F1 (BDF1) mice
Details: T/C endpoint: mean survival time, higher T/C = longer survival

CCOC(=O)CN1C(=O)NC2(CCc3ccccc3C2)C1=O (stereo not given)
survivor count (dose: 100.0 mg/kg/injection, schedule: Q04DX003 (ip), vehicle: saline with Tween-80): 0 of 6 | survivor count (dose: 200.0 mg/kg/injection, schedule: Q04DX003 (ip), vehicle: saline with Tween-80): 0 of 6

CN1Cc2c(ccc3c2OCO3)[C@@H]2[C@H](O)Cc3cc4c(cc3[C@@H]21)OCO4
T/C (dose: 150.0 mg/kg/injection, schedule: Q01DX Z (ip), vehicle: carboxymethylcellulose (CMC)): 126 % of control | T/C (dose: 400.0 mg/kg/injection, schedule: Q04DX003 (ip), vehicle: Klucel (hydroxypropylcellulose) (HPC)): 136 % of control

O=NN(CCCl)C(=O)NC1(C(=O)O)CCCC1
T/C (dose: 36.0 mg/kg/injection, schedule: Q01DX001 (ip), vehicle: saline with Tween-80): 140 % of control | T/C (dose: 50.0 mg/kg/injection, schedule: Q01DX001 (ip), vehicle: carboxymethylcellulose (CMC)): 129 % of control | T/C (dose: 54.0 mg/kg/injection, schedule: Q01DX001 (ip), vehicle: saline with Tween-80): 133 % of control | survivor count (dose: 400.0 mg/kg/injection, schedule: Q01DX001 (ip), vehicle: saline with Tween-80): 9 of 10

CC(=O)OC1CCCCC1NC(=O)N(CCCl)N=O (stereo not given)
T/C (dose: 15.0 mg/kg/injection, schedule: Q01DX001 (ip), vehicle: carboxymethylcellulose (CMC)): 129 % of control | survivor count (dose: 135.0 mg/kg/injection, schedule: Q01DX001 (ip), vehicle: carboxymethylcellulose (CMC)): 10 of 10
